NP40-soluble protein abundance data for 58 targets are collected here from the supplement of paper PMC6411743.

Amino acid sequences for entries named in this document (tags omitted). A change or cut given only in a name is not applied to a line headed by its entry.
UniProt Q8TBF4: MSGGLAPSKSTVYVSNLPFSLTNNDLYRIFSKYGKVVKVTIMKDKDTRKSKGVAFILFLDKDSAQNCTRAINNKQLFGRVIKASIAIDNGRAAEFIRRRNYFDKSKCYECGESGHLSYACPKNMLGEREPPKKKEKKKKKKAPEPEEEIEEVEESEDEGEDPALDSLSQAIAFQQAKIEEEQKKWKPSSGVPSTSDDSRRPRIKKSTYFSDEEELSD
UniProt Q92905, whole entry, looked up: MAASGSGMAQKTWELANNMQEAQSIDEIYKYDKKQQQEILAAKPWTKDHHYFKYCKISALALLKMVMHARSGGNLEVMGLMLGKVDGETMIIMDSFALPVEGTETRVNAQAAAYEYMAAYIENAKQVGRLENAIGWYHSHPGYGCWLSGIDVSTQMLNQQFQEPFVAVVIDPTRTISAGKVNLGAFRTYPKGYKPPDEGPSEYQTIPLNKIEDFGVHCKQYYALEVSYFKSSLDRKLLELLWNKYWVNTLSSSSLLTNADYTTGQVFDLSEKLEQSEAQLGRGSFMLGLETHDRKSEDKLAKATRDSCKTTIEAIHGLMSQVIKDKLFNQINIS
UniProt Q8TBX8: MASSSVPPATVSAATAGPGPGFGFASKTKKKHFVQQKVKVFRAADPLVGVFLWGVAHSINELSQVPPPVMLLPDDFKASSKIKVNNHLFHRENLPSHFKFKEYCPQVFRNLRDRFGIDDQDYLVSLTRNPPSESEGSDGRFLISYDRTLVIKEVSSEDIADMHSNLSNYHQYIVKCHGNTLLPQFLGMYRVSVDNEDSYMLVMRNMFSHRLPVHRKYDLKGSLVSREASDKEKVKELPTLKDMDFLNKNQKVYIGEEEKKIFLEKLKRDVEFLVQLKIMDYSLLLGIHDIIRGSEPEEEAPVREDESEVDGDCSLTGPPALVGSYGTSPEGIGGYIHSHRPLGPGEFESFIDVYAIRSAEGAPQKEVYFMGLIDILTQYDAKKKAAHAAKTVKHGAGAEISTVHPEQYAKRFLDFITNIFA
UniProt Q92604: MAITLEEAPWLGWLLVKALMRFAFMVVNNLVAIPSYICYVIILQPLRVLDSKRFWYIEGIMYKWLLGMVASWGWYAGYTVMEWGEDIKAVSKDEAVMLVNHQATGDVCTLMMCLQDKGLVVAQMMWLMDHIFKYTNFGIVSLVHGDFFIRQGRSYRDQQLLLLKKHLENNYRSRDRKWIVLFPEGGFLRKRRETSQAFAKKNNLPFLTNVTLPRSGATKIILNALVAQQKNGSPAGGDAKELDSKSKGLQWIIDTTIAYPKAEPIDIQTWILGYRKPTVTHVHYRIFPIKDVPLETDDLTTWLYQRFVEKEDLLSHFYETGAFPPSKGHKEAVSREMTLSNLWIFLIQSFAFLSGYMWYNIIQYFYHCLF
UniProt Q8WWI5: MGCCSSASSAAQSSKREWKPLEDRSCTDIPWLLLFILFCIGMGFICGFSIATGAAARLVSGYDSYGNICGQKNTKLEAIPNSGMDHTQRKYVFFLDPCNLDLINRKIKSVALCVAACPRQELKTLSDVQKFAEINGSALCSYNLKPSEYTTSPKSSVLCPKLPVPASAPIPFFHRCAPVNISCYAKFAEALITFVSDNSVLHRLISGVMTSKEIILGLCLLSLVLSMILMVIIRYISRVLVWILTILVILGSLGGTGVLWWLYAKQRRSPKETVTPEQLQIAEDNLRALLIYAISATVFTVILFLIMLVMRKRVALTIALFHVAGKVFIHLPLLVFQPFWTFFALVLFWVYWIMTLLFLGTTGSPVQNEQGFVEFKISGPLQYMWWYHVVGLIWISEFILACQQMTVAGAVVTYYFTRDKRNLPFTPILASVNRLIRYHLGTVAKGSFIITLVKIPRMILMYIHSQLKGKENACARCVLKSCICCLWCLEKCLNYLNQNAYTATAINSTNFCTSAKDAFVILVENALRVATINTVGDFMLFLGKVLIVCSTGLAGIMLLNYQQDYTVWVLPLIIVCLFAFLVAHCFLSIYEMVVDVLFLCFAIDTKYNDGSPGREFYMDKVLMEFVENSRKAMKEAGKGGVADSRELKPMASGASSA
UniProt Q8WXE0: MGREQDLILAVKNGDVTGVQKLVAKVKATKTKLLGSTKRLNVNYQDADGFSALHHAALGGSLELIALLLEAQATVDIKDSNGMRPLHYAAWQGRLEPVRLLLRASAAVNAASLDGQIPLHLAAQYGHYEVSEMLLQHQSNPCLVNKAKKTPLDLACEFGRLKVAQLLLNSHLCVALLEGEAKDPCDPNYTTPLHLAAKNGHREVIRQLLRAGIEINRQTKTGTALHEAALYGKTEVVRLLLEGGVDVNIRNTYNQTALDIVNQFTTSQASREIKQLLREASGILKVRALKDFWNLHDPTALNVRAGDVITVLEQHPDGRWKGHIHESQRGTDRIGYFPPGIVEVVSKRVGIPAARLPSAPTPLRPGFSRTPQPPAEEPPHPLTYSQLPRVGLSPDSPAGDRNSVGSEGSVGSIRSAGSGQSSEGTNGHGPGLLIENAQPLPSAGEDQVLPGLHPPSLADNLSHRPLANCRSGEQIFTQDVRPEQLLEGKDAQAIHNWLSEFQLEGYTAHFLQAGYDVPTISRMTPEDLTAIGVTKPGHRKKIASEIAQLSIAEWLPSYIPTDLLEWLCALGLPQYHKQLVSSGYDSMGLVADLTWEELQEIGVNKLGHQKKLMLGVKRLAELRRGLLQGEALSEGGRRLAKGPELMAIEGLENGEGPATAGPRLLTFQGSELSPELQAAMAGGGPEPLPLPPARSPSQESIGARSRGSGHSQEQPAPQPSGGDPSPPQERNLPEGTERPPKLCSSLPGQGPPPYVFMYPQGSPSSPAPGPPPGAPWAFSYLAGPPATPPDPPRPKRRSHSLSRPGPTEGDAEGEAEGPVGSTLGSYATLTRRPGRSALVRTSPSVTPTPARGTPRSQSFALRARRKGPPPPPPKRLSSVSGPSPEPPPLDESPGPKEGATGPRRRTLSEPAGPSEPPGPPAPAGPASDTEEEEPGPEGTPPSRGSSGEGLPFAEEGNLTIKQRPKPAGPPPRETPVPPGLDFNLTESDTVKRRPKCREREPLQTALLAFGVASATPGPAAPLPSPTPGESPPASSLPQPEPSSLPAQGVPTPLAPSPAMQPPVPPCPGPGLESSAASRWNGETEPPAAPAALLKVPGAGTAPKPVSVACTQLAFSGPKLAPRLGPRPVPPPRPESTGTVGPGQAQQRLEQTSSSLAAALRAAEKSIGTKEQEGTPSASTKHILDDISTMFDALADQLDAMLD
UniProt Q8NEC7: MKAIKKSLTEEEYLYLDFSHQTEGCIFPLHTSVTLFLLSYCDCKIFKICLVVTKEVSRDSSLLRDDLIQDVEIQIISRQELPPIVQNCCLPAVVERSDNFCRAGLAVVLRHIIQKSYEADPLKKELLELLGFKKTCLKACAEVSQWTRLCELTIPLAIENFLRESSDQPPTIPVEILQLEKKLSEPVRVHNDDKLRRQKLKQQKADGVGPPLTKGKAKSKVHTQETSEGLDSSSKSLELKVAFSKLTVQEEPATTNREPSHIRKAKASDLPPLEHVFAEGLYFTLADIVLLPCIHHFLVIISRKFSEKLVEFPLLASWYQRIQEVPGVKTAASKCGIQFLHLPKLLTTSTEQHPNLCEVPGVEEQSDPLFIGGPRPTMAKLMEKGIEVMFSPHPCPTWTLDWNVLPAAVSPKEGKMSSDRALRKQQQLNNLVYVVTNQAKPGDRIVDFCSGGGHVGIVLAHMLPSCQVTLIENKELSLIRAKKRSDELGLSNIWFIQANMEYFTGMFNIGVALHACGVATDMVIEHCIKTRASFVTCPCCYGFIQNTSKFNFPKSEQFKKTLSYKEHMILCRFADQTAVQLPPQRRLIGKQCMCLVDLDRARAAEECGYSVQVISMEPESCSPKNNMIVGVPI
UniProt Q8TBN0: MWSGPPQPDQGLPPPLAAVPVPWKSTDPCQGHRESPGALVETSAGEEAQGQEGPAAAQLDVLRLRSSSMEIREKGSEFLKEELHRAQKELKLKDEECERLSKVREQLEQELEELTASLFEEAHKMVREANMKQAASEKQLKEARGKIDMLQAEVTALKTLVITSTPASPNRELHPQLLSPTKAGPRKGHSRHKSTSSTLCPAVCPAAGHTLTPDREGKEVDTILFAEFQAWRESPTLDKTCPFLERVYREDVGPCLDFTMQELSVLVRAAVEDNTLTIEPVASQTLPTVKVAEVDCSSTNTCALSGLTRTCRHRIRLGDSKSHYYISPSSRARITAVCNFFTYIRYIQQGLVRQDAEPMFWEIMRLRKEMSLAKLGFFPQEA
UniProt Q8WWK9: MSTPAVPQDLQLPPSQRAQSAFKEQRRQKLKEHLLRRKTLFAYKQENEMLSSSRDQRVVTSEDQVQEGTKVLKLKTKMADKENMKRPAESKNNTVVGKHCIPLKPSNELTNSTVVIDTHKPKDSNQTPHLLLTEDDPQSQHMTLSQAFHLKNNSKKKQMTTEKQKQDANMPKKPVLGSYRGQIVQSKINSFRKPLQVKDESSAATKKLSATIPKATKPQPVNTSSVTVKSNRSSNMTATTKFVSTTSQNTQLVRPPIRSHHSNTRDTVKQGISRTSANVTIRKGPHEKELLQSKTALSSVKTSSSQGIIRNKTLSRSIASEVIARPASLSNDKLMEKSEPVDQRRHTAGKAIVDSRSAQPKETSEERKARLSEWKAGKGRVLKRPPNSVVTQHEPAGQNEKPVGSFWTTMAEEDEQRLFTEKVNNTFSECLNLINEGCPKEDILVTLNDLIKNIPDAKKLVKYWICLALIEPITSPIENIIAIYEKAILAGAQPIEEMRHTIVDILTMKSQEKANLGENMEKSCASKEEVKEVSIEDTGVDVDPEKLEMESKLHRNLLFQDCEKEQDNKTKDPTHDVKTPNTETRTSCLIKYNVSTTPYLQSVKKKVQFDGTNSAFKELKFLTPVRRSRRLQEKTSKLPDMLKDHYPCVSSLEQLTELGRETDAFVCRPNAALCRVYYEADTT
UniProt Q8NI22: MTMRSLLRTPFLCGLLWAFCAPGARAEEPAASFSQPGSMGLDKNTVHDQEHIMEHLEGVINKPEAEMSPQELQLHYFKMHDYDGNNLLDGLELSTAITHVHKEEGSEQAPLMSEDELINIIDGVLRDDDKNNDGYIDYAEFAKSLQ
UniProt Q92574: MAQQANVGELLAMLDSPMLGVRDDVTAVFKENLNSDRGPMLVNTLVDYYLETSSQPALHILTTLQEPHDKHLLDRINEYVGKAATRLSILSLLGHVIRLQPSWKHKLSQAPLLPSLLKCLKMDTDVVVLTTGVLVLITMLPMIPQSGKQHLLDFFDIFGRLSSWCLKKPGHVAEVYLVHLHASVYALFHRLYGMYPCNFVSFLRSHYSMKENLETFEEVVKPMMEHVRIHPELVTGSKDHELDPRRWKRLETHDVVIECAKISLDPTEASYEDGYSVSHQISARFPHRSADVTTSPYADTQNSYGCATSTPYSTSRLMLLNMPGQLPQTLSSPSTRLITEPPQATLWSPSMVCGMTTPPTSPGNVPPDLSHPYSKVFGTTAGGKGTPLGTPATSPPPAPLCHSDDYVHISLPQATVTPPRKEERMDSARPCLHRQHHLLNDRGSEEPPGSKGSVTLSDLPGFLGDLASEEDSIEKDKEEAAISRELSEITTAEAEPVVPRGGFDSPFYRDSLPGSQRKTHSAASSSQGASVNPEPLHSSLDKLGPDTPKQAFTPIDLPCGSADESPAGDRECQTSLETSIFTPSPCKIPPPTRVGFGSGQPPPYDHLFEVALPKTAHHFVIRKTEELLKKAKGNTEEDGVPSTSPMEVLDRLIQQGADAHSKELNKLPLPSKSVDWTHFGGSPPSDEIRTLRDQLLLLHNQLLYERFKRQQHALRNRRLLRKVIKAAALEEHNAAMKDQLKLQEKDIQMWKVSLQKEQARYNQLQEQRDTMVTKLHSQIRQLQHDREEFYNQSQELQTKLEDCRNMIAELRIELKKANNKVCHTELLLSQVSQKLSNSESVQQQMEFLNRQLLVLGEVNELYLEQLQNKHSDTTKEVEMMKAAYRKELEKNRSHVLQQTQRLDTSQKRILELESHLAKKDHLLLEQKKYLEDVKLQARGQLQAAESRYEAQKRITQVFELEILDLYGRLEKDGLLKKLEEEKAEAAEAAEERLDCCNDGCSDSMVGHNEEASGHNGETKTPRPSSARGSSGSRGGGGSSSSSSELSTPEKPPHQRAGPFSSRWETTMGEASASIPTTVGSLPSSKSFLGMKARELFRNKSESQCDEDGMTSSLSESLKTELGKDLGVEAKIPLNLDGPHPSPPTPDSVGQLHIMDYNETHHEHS
UniProt Q92747, whole entry: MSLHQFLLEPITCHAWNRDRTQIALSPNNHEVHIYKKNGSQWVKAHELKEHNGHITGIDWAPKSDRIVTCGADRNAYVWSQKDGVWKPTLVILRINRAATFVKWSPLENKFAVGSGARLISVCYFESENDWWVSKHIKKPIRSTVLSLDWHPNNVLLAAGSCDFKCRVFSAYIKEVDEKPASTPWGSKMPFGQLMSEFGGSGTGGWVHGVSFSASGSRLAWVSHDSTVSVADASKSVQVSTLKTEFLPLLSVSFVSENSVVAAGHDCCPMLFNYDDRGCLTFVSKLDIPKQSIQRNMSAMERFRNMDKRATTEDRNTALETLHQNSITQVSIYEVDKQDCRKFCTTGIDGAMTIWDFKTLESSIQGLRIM

± gives the standard deviation of the averaged measurements. The entries are a selection whose mix differs from that of the whole data set. Most values lie at the level of the controls, where differences are scatter.

Compound in the assay: Nc1ncnc2c1ncn2[C@@H]1O[C@H](COP(=O)(O)OP(=O)(O)NP(=O)(O)O)[C@@H](O)[C@H]1O [adenylyl imidodiphosphate]
The assay can be described thus: NP40-soluble protein abundance relative to vehicle (solubility fold change) (ratio); higher = more soluble protein in presence of AMP-PNP. An outline of the steps: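 Jurkat crude lysate (Dounce-homogenised) was treated with eight concentrations from 0.1 to 10 mM for 10 min at room temperature, then 3 min at 37 °C. It was solubilised with 0.8% NP40 and benzonase (60 min, 4 °C) and ultracentrifuged, and the supernatant was TMT-labelled for LC-MS/MS. Intensities were vsn-normalised, and the value is the fold change against the NP40-processed vehicle per replicate, from three independent experiments.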

Turning to CHD6 (UniProt Q8TD26), the NP40-soluble protein abundance turned out to be 1.01 ± 0.018 (concentration: 0.1mM) and 0.983 ± 0.047 (concentration: 0.5mM).
As to NUP133 (UniProt Q8WUM0), the NP40-soluble protein abundance (concentration: 0.1mM) was 0.988 ± 0.012 and the NP40-soluble protein abundance (concentration: 0.5mM) was 0.935 ± 0.041.
Consider HJURP (UniProt Q8NCD3), for which the NP40-soluble protein abundance by setting is: (concentration: 0.1mM) 0.967 ± 0.0073; (concentration: 0.5mM) 0.975 ± 0.041.
The corresponding values for UniProt Q92552 and related entries are 1.02 ± 0.04 and 1 ± 0.042.
For UniProt Q8NE86 and related entries, in that order: 1.02 ± 0.024 and 0.977 ± 0.036.
As for UniProt Q8TF46 and related entries, the NP40-soluble protein abundance was 1 ± 0.03 (concentration: 0.1mM) and 1.02 ± 0.03 (concentration: 0.5mM).
On to TDRD7 (UniProt Q8NHU6), for which the NP40-soluble protein abundance was 0.977 ± 0.012 (concentration: 0.1mM) and 0.996 ± 0.029 (concentration: 0.5mM).
Turning to PLA2G15 (UniProt Q8NCC3), the NP40-soluble protein abundance by setting is: (concentration: 0.1mM) 1.05 ± 0.034; (concentration: 0.5mM) 0.99 ± 0.038.
Consider UniProt Q8TBZ6, for which the NP40-soluble protein abundance worked out at 1.02 ± 0.011 (concentration: 0.1mM) and 0.994 ± 0.017 (concentration: 0.5mM).
Consider ZNF384 (UniProt Q8TF68), for which the NP40-soluble protein abundance (concentration: 0.1mM) was 0.972 ± 0.02 and the NP40-soluble protein abundance (concentration: 0.5mM) turned out to be 0.998 ± 0.049.
On to UniProt Q8TEQ0 and related entries, for which the NP40-soluble protein abundance came out at 0.995 ± 0.011 (concentration: 0.1mM) and 0.973 ± 0.018 (concentration: 0.5mM).
Regarding ZCRB1 (UniProt Q8TBF4), the NP40-soluble protein abundance amounted to 1.02 ± 0.011 (concentration: 0.1mM) and 1.01 ± 0.039 (concentration: 0.5mM).
As for UniProt Q8WZA0 and related entries, the NP40-soluble protein abundance turned out to be 0.957 ± 0.081 (concentration: 0.1mM) and 1.04 ± 0.054 (concentration: 0.5mM).
As for UniProt Q8WV93, the NP40-soluble protein abundance came to 1.03 ± 0.12 (concentration: 0.1mM) and 0.989 ± 0.11 (concentration: 0.5mM).
Regarding COPS5 (UniProt Q92905), the NP40-soluble protein abundance runs as follows: (concentration: 0.1mM) 1.04 ± 0.069; (concentration: 0.5mM) 0.984 ± 0.027.
As for UniProt Q8TEH3 and related entries, the NP40-soluble protein abundance by setting is: (concentration: 0.1mM) 1.03 ± 0.014; (concentration: 0.5mM) 1.02 ± 0.013.
As to NSUN6 (UniProt Q8TEA1), the NP40-soluble protein abundance came to 0.984 ± 0.028 (concentration: 0.1mM) and 0.984 ± 0.019 (concentration: 0.5mM).
Turning to UniProt Q92738 and related entries, the NP40-soluble protein abundance by setting is: (concentration: 0.1mM) 0.96 ± 0.021; (concentration: 0.5mM) 0.969 ± 0.033.
For UniProt Q92576 and related entries, in that order: 0.99 ± 0.027 and 0.994 ± 0.02.
The corresponding values for UniProt Q8TBX8 are 0.9964 ± 0.005 and 0.985 ± 0.014.
For UniProt Q92859 and related entries, in that order: 1 ± 0.026 and 0.967 ± 0.03.
Turning to UniProt Q8TCC3 and related entries, the NP40-soluble protein abundance was determined as 1.07 ± 0.047 (concentration: 0.1mM) and 1.08 ± 0.049 (concentration: 0.5mM).
The corresponding values for UniProt Q92600 and related entries are 0.94 ± 0.033 and 0.981 ± 0.068.
The corresponding values for CORO2A (UniProt Q92828) are 1.01 ± 0.014 and 0.992 ± 0.061.
The corresponding values for UniProt Q92896 and related entries are 0.978 ± 0.012 and 0.993 ± 0.043.
On to UniProt Q8NBZ7 and related entries, for which the NP40-soluble protein abundance is, setting by setting: (concentration: 0.1mM) 0.976 ± 0.018; (concentration: 0.5mM) 0.9576 ± 0.0035.
Turning to LPGAT1 (UniProt Q92604), the NP40-soluble protein abundance is 0.983 ± 0.054 (concentration: 0.1mM) and 0.9509 ± 0.0093 (concentration: 0.5mM).
For KBTBD7 (UniProt Q8WVZ9), the NP40-soluble protein abundance by setting is: (concentration: 0.1mM) 1.03 ± 0.014; (concentration: 0.5mM) 0.979 ± 0.019.
Turning to SLC44A1 (UniProt Q8WWI5), the NP40-soluble protein abundance was 1.02 ± 0.012 (concentration: 0.1mM) and 0.989 ± 0.032 (concentration: 0.5mM).
The corresponding values for UniProt Q8WXE0 and related entries are 0.988 ± 0.049 and 0.973 ± 0.023.
On to UniProt Q8NEZ4 and related entries, for which the NP40-soluble protein abundance reads like this: (concentration: 0.1mM) 0.966 ± 0.05; (concentration: 0.5mM) 0.938 ± 0.077.
For the target UniProt Q8TBA6 and related entries, the NP40-soluble protein abundance came out at 0.962 ± 0.011 (concentration: 0.1mM) and 1 ± 0.046 (concentration: 0.5mM).
As to UniProt Q8TDD1 and related entries, the NP40-soluble protein abundance (concentration: 0.1mM) came out at 0.996 ± 0.015 and the NP40-soluble protein abundance (concentration: 0.5mM) was found to be 0.987 ± 0.027.
As to UniProt Q92688 and related entries, the NP40-soluble protein abundance runs as follows: (concentration: 0.1mM) 1.03 ± 0.049; (concentration: 0.5mM) 1.03 ± 0.03.
As to UniProt Q8TF01, the NP40-soluble protein abundance is 1.01 ± 0.016 (concentration: 0.1mM) and 1.07 ± 0.054 (concentration: 0.5mM).
For the target MRPS31 (UniProt Q92665), the NP40-soluble protein abundance reads like this: (concentration: 0.1mM) 1.05 ± 0.051; (concentration: 0.5mM) 1.02 ± 0.043.
As to ZC3H15 (UniProt Q8WU90), the NP40-soluble protein abundance (concentration: 0.1mM) was 0.9726 ± 0.0085 and the NP40-soluble protein abundance (concentration: 0.5mM) stood at 1.01 ± 0.044.
With PPP1R13L (UniProt Q8WUF5), the NP40-soluble protein abundance (concentration: 0.1mM) came out at 1.01 ± 0.011 and the NP40-soluble protein abundance (concentration: 0.5mM) came out at 1.011 ± 0.0079.
Turning to NOC3L (UniProt Q8WTT2), the NP40-soluble protein abundance (concentration: 0.1mM) was determined as 1.031 ± 0.0068 and the NP40-soluble protein abundance (concentration: 0.5mM) is 1.07 ± 0.03.
With UniProt Q8TDQ7 and related entries, the NP40-soluble protein abundance amounted to 1 ± 0.013 (concentration: 0.1mM) and 1.02 ± 0.063 (concentration: 0.5mM).
Regarding UniProt Q8TCT9 and related entries, the NP40-soluble protein abundance is 0.978 ± 0.033 (concentration: 0.1mM) and 0.981 ± 0.063 (concentration: 0.5mM).
For UniProt Q8WXA9-2, in that order: 0.993 ± 0.031 and 0.982 ± 0.022.
Regarding UniProt Q8TCA0 and related entries, the NP40-soluble protein abundance is, setting by setting: (concentration: 0.1mM) 0.987 ± 0.02; (concentration: 0.5mM) 0.987 ± 0.035.
In the case of UniProt Q8TCE6 and related entries, the NP40-soluble protein abundance is, setting by setting: (concentration: 0.1mM) 0.997 ± 0.028; (concentration: 0.5mM) 0.989 ± 0.04.
As for NSMCE1 (UniProt Q8WV22), the NP40-soluble protein abundance reads like this: (concentration: 0.1mM) 0.995 ± 0.018; (concentration: 0.5mM) 0.9948 ± 0.0074.
As to RTF1 (UniProt Q92541), the NP40-soluble protein abundance reads like this: (concentration: 0.1mM) 0.98 ± 0.03; (concentration: 0.5mM) 1.01 ± 0.056.
Take LEO1 (UniProt Q8WVC0): the NP40-soluble protein abundance (concentration: 0.1mM) worked out at 0.98 ± 0.022 and the NP40-soluble protein abundance (concentration: 0.5mM) is 1.01 ± 0.047.
For GSTCD (UniProt Q8NEC7), the NP40-soluble protein abundance by setting is: (concentration: 0.1mM) 0.991 ± 0.019; (concentration: 0.5mM) 1 ± 0.039.
For UniProt Q8WXH0 and related entries, in that order: 1.01 ± 0.0077 and 1.012 ± 0.009.
As for UniProt Q8TBN0 and related entries, the NP40-soluble protein abundance (concentration: 0.1mM) was determined as 1.02 ± 0.021 and the NP40-soluble protein abundance (concentration: 0.5mM) came to 1.01 ± 0.03.
As to DDX1 (UniProt Q92499), the NP40-soluble protein abundance (concentration: 0.1mM) worked out at 0.99 ± 0.032 and the NP40-soluble protein abundance (concentration: 0.5mM) amounted to 0.985 ± 0.033.
For UniProt Q8WWK9 and related entries, the NP40-soluble protein abundance (concentration: 0.1mM) was 0.946 ± 0.019 and the NP40-soluble protein abundance (concentration: 0.5mM) was determined as 0.967 ± 0.021.
For the target GCDH (UniProt Q92947), the NP40-soluble protein abundance runs as follows: (concentration: 0.1mM) 0.9896 ± 0.0028; (concentration: 0.5mM) 0.972 ± 0.011.
For the target GTF2H4 (UniProt Q92759), the NP40-soluble protein abundance by setting is: (concentration: 0.1mM) 1.03 ± 0.032; (concentration: 0.5mM) 1.04 ± 0.035.
Turning to UniProt Q8NI22 and related entries, the NP40-soluble protein abundance came to 0.976 ± 0.027 (concentration: 0.1mM) and 0.997 ± 0.018 (concentration: 0.5mM).
Regarding UniProt Q92574 and related entries, the NP40-soluble protein abundance is 1.01 ± 0.027 (concentration: 0.1mM) and 0.997 ± 0.036 (concentration: 0.5mM).
For HSD17B8 (UniProt Q92506), the NP40-soluble protein abundance (concentration: 0.1mM) was determined as 1.05 ± 0.052 and the NP40-soluble protein abundance (concentration: 0.5mM) worked out at 1.02 ± 0.04.
For ARPC1A (UniProt Q92747), in that order: 1.02 ± 0.062 and 0.974 ± 0.14.
